According to US8669228B2 (Indiana University Research and Technology Corporation, priority 2007, dated 2014):

Experiment: general procedure: Boc solid-phase peptide synthesis; Boc Thr(OBzl) Pam resin; methoxybenzhydrylamine resin for C-terminal amide; HBTU
Conditions: conjugation step, analytical HPLC (Zorbax C8, 214 nm); MALDI mass spectral analysis

For Glucagon Cys^24 Mal-PEG-20K, the “final HPLC purity” value was “±90%”.
